Results from PMC4971335.
Results are given in words; binding and its absence hold for the method and conditions named. Binding seen in cells or lysates may run through a third protein. Some binding calls cover weakened binding; strength is not graded here.

By UniProt entry, the sequences of proteins in these tests, tags left out.
UniProt P63208: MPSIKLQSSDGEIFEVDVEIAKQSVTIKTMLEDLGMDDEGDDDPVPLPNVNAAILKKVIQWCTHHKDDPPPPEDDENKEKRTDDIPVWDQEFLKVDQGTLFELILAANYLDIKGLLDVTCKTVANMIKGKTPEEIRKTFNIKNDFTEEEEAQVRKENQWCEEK

T1: wild-type AIP (coimmunoprecipitation) (human) (UniProt O00170)
T1 sequence: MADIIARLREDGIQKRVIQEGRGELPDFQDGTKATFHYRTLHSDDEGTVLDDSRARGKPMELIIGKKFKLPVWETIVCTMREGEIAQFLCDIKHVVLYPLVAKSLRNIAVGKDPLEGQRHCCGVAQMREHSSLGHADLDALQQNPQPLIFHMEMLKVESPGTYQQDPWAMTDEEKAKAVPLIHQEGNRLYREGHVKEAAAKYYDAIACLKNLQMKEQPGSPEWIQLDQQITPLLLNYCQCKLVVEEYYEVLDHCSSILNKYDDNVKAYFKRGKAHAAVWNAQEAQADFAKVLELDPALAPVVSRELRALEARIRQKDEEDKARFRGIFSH

B1: FBXO3 (coimmunoprecipitation) (protein, UniProt Q9UK99 1-471)
chain: MAAMETETAPLTLESLPTDPLLLILSFLDYRDLINCCYVSRRLSQLSSHDPLWRRHCKKYWLISEEEKTQKNQCWKSLFIDTYSDVGRYIDHYAAIKKAWDDLKKYLEPRCPRMVLSLKEGAREEDLDAVEAQIGCKLPDDYRCSYRIHNGQKLVVPGLLGSMALSNHYRSEDLLDVDTAAGGFQQRQGLKYCLPLTFCIHTGLSQYIAVEAAEGRNKNEVFYQCPDQMARNPAAIDMFIIGATFTDWFTSYVKNVVSGGFPIIRDQIFRYVHDPECVATTGDITVSVSTSFLPELSSVHPPHYFFTYRIRIEMSKDALPEKACQLDSRYWRITNAKGDVEEVQGPGVVGEFPIISPGRVYEYTSCTTFSTTSGYMEGYYTFHFLYFKDKIFNVAIPRFHMACPTFRVSIARLEMGPDEYEEMEEEEEEEEEEDEDDDSADMDESDEDDEEERRRRVFDVPIRRRRCSRLF

Target: T1, wild-type AIP (coimmunoprecipitation) (human)
Test: co-IP; coimmunoprecipitation with WT AIP to validate the pull-down hits; cells, tags and bait not told in the text shown

Molecule | binding
SKP1 (coimmunoprecipitation) (from UniProt P63208 1-163) | no binding
B1 | binds
